# Source: paper PMC8103646
# Target: T1, IGPR-1-Myc (immunoglobulin and proline-rich receptor-1), wild type (human) (UniProt Q96BF3)
# T1 sequence: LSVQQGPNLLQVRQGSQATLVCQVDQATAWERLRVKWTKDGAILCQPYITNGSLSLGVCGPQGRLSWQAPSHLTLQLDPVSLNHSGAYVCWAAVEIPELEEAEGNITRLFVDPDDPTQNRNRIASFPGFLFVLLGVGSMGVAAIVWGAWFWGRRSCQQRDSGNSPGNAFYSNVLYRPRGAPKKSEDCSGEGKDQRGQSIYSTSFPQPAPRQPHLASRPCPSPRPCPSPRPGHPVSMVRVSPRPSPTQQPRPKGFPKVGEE
# Test: co-IP; HEK-293 cells expressing IGPR-1-Myc or Δ57/IGPR-1-Myc transfected with NEDD4-HA, lysed after 48 h; immunoprecipitation with anti-IGPR-1 or anti-Myc antibody, Western blot with anti-HA antibody
substance,measurement,value
"NEDD4-HA (full-length, wild-type NEDD4) (from UniProt P46934-4) (enzyme)",binding,binds

# Results are given in words; binding and its absence hold for the method and conditions named. Binding seen in cells or lysates may run through a third protein. Binding can be weak; no strength is given. Sequences can lack the tags named with a protein.
